{"sequences": {"note": "Amino acid sequences for entries named in this document (tags omitted). A change or cut given only in a name is not applied to a line headed by its entry.", "UniProt Q9H3D4": "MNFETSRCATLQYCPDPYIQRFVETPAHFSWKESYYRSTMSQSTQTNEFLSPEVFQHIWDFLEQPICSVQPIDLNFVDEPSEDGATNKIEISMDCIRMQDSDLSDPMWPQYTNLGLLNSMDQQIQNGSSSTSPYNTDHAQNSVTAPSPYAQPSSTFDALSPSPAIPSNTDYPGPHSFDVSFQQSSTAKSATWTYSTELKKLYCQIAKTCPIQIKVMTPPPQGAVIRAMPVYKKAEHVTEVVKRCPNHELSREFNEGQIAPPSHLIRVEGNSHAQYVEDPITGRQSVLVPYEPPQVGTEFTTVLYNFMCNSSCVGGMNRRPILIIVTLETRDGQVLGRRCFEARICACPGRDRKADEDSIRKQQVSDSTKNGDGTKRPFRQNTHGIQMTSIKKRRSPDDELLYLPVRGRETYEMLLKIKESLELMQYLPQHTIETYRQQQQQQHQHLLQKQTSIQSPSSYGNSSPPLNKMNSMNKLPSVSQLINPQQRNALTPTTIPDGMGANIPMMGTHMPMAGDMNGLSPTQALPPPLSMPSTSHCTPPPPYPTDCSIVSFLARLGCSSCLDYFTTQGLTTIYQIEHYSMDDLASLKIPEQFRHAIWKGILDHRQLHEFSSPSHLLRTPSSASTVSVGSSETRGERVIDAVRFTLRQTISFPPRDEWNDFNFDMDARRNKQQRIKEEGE", "UniProt P48431": "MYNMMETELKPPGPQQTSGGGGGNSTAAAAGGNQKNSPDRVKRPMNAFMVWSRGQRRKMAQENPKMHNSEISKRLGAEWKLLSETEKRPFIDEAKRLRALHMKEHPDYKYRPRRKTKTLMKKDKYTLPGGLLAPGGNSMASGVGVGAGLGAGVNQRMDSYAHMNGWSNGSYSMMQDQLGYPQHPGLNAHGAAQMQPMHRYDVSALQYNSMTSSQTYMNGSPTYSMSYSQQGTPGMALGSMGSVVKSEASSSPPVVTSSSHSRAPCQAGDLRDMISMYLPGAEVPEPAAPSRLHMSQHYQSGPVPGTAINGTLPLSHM"}, "source": "paper PMC6127298", "biological_target": "TP63 (human (endogenous in SCC cell lines)) (UniProt Q9H3D4)", "experiment": "co-IP; 500 ug whole-cell lysate (RIPA buffer) incubated with indicated antibody or IgG overnight in cold room, Dynabeads protein A/G 4 h, Western blotting; also done in cells with CCAT1 downregulated (binding not affected)", "note": "No constants are given. Whether binding was seen depends on the method and setting. Binding seen in cells or lysates may run through a third protein. A result given as binding can be weak or reduced; the word gives no strength.", "data": [{"substance": "SOX2 (from UniProt P48431 1-317)", "values": [{"measurement": "binding", "value": "binds"}]}]}
